One assay has as its target T1, Rsph3b (mouse) (UniProt Q9DA80).
T1 sequence: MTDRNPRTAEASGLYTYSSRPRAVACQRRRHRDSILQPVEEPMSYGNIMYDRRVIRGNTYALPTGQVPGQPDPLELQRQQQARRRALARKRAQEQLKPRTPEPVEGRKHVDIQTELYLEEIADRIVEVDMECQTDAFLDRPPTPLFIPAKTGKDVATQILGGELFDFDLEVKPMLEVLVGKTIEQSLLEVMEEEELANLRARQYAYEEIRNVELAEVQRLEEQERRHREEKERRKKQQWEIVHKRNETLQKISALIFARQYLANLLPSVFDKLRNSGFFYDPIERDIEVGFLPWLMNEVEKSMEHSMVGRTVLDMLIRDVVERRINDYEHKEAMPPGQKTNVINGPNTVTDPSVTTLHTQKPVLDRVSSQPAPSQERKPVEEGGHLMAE
The assay is described as follows: cryo-EM structure.

The target in another assay is T2, Rsph9 (mouse) (UniProt Q9D9V4).
T2 sequence: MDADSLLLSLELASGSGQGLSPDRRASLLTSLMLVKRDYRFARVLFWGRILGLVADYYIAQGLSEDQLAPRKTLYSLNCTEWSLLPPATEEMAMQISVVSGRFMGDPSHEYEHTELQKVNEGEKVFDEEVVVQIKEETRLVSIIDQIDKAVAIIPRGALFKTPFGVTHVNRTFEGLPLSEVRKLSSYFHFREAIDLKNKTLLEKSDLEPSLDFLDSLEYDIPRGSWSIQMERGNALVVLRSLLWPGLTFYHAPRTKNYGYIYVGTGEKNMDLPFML
The assay is described as follows: cryo-EM structure.

For assay [1], the target named is T3, Rsph16 (mouse) (UniProt Q80Y75).
T3 sequence: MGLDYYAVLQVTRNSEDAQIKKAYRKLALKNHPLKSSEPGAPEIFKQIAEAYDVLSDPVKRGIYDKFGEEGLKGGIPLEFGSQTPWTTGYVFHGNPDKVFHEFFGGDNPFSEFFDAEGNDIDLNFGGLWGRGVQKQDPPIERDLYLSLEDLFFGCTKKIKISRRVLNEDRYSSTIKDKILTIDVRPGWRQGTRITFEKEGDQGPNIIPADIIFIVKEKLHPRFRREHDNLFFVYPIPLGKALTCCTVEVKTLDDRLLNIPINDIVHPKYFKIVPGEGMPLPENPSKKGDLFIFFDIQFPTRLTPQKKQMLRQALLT
Nature of the assay: cryo-EM structure.

Assay [2] has as its target T3, Rsph16 (mouse). Nature of the assay: cross-linking.
The target of a further assay is T4, Rsph4a (mouse) (UniProt Q8BYM7).
T4 sequence: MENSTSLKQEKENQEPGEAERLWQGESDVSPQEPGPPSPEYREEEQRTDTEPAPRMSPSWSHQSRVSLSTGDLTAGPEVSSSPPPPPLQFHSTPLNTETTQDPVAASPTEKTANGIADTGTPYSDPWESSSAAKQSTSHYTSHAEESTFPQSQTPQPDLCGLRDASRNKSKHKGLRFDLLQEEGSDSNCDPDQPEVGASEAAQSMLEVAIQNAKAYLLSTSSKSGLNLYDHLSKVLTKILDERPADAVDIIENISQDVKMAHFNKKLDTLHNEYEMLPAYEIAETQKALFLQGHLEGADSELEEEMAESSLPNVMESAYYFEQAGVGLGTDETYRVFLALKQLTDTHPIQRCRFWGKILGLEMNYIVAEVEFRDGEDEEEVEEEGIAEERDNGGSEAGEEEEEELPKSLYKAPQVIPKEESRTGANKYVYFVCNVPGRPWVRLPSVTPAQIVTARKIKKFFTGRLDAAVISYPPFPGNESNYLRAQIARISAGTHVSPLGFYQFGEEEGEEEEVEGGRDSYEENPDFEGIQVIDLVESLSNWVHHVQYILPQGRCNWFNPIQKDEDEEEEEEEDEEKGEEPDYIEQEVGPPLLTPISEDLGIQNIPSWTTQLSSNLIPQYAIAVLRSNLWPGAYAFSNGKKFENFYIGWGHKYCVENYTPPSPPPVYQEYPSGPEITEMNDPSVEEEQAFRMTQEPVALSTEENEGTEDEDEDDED
Nature of the assay: cryo-EM structure.

No constants are given. Whether binding was seen depends on the method and setting. Some binding calls cover weakened binding; strength is not graded here.

B1: Rsph4a (protein, UniProt Q8BYM7 1-716)
chain: MENSTSLKQEKENQEPGEAERLWQGESDVSPQEPGPPSPEYREEEQRTDTEPAPRMSPSWSHQSRVSLSTGDLTAGPEVSSSPPPPPLQFHSTPLNTETTQDPVAASPTEKTANGIADTGTPYSDPWESSSAAKQSTSHYTSHAEESTFPQSQTPQPDLCGLRDASRNKSKHKGLRFDLLQEEGSDSNCDPDQPEVGASEAAQSMLEVAIQNAKAYLLSTSSKSGLNLYDHLSKVLTKILDERPADAVDIIENISQDVKMAHFNKKLDTLHNEYEMLPAYEIAETQKALFLQGHLEGADSELEEEMAESSLPNVMESAYYFEQAGVGLGTDETYRVFLALKQLTDTHPIQRCRFWGKILGLEMNYIVAEVEFRDGEDEEEVEEEGIAEERDNGGSEAGEEEEEELPKSLYKAPQVIPKEESRTGANKYVYFVCNVPGRPWVRLPSVTPAQIVTARKIKKFFTGRLDAAVISYPPFPGNESNYLRAQIARISAGTHVSPLGFYQFGEEEGEEEEVEGGRDSYEENPDFEGIQVIDLVESLSNWVHHVQYILPQGRCNWFNPIQKDEDEEEEEEEDEEKGEEPDYIEQEVGPPLLTPISEDLGIQNIPSWTTQLSSNLIPQYAIAVLRSNLWPGAYAFSNGKKFENFYIGWGHKYCVENYTPPSPPPVYQEYPSGPEITEMNDPSVEEEQAFRMTQEPVALSTEENEGTEDEDEDDED
As to B1, the binding result in the assay with Rsph3b (mouse) and with Rsph9 (mouse) was “binds” throughout.

B2: Rsph9 (protein, UniProt Q9D9V4 1-276)
chain: MDADSLLLSLELASGSGQGLSPDRRASLLTSLMLVKRDYRFARVLFWGRILGLVADYYIAQGLSEDQLAPRKTLYSLNCTEWSLLPPATEEMAMQISVVSGRFMGDPSHEYEHTELQKVNEGEKVFDEEVVVQIKEETRLVSIIDQIDKAVAIIPRGALFKTPFGVTHVNRTFEGLPLSEVRKLSSYFHFREAIDLKNKTLLEKSDLEPSLDFLDSLEYDIPRGSWSIQMERGNALVVLRSLLWPGLTFYHAPRTKNYGYIYVGTGEKNMDLPFML
As for B2, in the assay with Rsph16 (mouse) [1], the binding entry is listed as “binds”.

B3: Rsph23 (protein, UniProt Q99MH5 1-211)
chain: MEVSMPLPQIYVEKTLALIKPDVVDKEEEIQDIILGSGFTIIQRRKLHLSPEHCSNFYVEQYGKMFFPNLTAYMSSGPLVAMILARHKAISYWKELMGPSNSLVAKETHPDSLRAIYGTDELRNALHGSNDFAASEREIRFMFPAVIIEPIPIGQAAKDYINLYVAPTLLQGLTELCKEKPPDPYLWLADWLMKNNPNKPKLCHFPVTEEP
On to B3, for which the binding entry with Rsph16 (mouse) [1] and with Rsph3b (mouse) was “binds” throughout.

B4: Rsph10b (protein, UniProt E9PYQ0 1-876)
chain: MVKEKKKADKKGDKSARSPSSISDNPEASKQDSNASKQEVAPSAVVPVVETPLKQAPKRDSVQMEQSEEETQYEEPILTKLIVESYEGEKVRGLYEGEGFAVFQGGNTYHGMFSEGLMHGQGTYIWADGLKYEGDFVKNIPMNHGVYTWPDGSTYEGEVTNGMRNGFGMFKCGTQPVSYIGHWCHGKRHGKGSIYYNQEGTSWYEGDWVYNIKKGWGIRCYKSGNIYEGQWENNMRHGEGRMRWLTTNEEYTGHWEKGIQNGFGTHTWFLKRIPNSQYPLRNEYIGEFVNGFRHGQGKFYYASGAMYEGEWASNKKQGRGRMTFKNGHVYEGLFSNDHIAQFFETEMDYSQSLDRWSDASQRSRQPRGSSVSAVREPETLRKLDGSESRSVLGTSIELDLTLLLDMYPEESQEEEKKQVEYAVLRNITELRRIYCFYSGLGCDHSLDNTFLMTKLHFWRFLKDCRFHHHNITLADMDRVLSVYNGIPIEEIHSPFRTILLRTFLNYLLQLAYYIHHKEFQNRSPSLFLCFTKLMSENIHPHACQVKGHLFSEQQRTLYSMNYIDKCWEIYTAYCRPNEAPPYELTMKMRYFLWMLKDFRMINKDLTATKFMTVIAEDNPFVYDGTDSNFELELVFLEFFEALLCFSLCCMFDQMTRSYLKVPYDDITTNRYGSTQTILNQSIHRSPSAITSHDSEVHFSSTKSSLDKIGALPDGKIRQSEPKLKKSLSEDKVSKMNFKTQGRGLVFMSPQGEKYEKPKDEQKEKLNIWVNNLYVFFVSVLFSAYKREEMLKEKVKENQLQEAELAQQRQIENEELEARLNILREEEARKQDFELDITVLKEPSEIPASQPLTPSPPKEDLASIQTSKASPGKKKKK
With B4, in the assay with Rsph16 (mouse) [2], the binding result is reported as “binds weakly”.

B5: Rsph1 (protein, UniProt Q8VIG3 1-301)
chain: MSDLGSEELEEEGENDLGEYEGERNEVGERHGHGKARLPNGDTYEGSYEFGKRHGQGTYKFKNGARYTGDYVKNKKHGQGTFIYPDGSRYEGEWADDQRHGQGVYYYVNNDTYTGEWFNHQRHGQGTYLYAETGSKYVGTWVHGQQEGAAELIHLNHRYQGKFMNKNPVGPGKYVFDIGCEQHGEYRLTDTERGEEEEEEETLVNIVPKWKALNITELALWTPTLSEEQPPPEGQGQEEPQGLTGVGDPSEDIQAEGFEGELEPRGADEDVDTFRQESQENSYDIDQGNLNFDEEPSDLQD
Regarding B5, in the assay with Rsph4a (mouse), the binding result is recorded as “binds”.

Source of the values: article doi:10.1101/2023.06.02.543457.
